Measured values reported in article doi:10.1101/2023.05.23.541941.
These are yes or no findings as the source states them, for the method shown. For some of these results: Binding seen in cells or lysates may run through a third protein. Some results given as binding are weak or reduced against the parent protein; the word gives no strength.

By UniProt entry, the sequences of proteins in these tests, tags left out. Where a name states a change or a piece, a line headed by the entry shows the natural chain unless it says otherwise. Chains listed by the source or under a name are the forms on record and can include a tag or linker.
UniProt O22456: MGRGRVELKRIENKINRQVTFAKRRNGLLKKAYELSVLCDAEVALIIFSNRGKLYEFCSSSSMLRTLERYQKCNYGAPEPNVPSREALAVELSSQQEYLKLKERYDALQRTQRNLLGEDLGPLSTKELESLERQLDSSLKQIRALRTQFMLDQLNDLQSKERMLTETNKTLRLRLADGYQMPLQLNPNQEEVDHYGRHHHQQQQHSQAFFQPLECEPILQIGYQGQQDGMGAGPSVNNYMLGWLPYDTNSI
SEP3^Δtet3M-3FLAG (O22456, form named): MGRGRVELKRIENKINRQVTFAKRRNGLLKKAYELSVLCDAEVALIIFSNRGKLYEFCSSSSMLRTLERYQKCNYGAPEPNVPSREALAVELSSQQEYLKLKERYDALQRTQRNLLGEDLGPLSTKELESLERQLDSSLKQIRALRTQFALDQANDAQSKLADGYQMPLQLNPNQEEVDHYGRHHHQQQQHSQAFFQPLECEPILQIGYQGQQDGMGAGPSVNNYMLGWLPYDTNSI
SEP3^Δtet (At1g24260.3) (O22456, form named): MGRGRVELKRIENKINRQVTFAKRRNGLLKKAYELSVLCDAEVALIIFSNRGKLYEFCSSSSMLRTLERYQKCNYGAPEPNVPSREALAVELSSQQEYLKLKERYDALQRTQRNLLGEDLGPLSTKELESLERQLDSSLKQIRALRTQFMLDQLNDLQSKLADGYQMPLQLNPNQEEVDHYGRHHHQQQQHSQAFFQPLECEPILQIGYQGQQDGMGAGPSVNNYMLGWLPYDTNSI
UniProt P35631: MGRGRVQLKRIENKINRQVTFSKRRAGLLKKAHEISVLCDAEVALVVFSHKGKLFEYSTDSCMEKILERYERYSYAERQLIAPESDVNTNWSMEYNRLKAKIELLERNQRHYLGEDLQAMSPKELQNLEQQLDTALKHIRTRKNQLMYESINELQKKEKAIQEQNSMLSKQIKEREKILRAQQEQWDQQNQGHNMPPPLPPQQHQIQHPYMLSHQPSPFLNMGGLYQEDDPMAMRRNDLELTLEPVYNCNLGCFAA
UniProt P17839: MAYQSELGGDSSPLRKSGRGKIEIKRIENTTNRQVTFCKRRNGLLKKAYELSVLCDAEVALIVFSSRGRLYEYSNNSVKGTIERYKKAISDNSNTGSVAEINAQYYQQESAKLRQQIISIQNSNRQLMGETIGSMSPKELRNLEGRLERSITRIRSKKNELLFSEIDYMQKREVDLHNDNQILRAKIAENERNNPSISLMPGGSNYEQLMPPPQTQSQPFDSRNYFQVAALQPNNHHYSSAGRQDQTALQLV
AG^Δtet (P17839, form named): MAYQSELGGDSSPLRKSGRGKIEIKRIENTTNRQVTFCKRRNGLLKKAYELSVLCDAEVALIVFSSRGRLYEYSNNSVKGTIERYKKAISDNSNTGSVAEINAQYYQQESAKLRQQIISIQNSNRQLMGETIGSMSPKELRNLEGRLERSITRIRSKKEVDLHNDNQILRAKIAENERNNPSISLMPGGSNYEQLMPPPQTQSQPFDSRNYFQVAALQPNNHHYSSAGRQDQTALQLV

Tests used:
[1] = molecular target: T1, AP3/PI heterodimer (Arabidopsis thaliana) (UniProt P35632+P48007); assay: native gel or EMSA
T1 sequence 1: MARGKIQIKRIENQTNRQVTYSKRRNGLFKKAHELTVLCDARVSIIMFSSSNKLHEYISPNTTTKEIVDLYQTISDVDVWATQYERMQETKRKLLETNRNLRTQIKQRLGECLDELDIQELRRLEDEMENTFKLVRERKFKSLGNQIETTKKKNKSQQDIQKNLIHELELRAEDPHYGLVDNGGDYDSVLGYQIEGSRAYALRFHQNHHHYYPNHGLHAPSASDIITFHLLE
T1 sequence 2: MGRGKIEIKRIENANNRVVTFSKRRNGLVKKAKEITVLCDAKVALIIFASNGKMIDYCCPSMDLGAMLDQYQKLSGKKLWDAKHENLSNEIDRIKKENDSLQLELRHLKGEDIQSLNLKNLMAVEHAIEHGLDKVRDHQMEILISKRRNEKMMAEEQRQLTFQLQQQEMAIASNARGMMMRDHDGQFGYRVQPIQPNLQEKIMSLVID

[2] = molecular target: SEP3/AP1 heterodimer (Arabidopsis thaliana) (UniProt O22456+P35631); assay: native gel or EMSA
[3] = molecular target: AG (At4g18960.1) (Arabidopsis thaliana) (UniProt P17839); assay: native gel or EMSA
[4] = molecular target: SEP3/AG heterodimer (wild type) (Arabidopsis thaliana) (UniProt O22456+P17839); assay: native gel or EMSA
[5] = molecular target: AG-5Myc (Arabidopsis thaliana) (UniProt P17839); assay: co-IP
[6] = molecular target: AG^Δtet-5Myc (Arabidopsis thaliana) (UniProt P17839); assay: co-IP
[7] = molecular target: AG^Δtet (Arabidopsis thaliana) (UniProt P17839); assay: native gel or EMSA
[8] = molecular target: SEP3^Δtet/AG heterodimer (Arabidopsis thaliana) (UniProt O22456+P17839); assay: native gel or EMSA
[9] = molecular target: AP1 (AT1G69120) (Arabidopsis thaliana) (UniProt P35631); assay: native gel or EMSA

In the case of “SEP3/AP1 heterodimer (from UniProt O22456 1-251; P35631 1-256) (complex)”, the binding [1] is reported as “binds” and the binding [2] is reported as “binds”.

With SEP3^Δtet3M (from UniProt O22456 1-251) the binding [3] was “binds”.

In the case of “SEP3/AG heterodimer (wild type) (from UniProt O22456 1-251; P17839 1-252) (complex)”, the binding [4] is reported as “binds”.

“SEP3^Δtet3M-3FLAG (from UniProt O22456 1-251)” was tested, and the binding [5] was “binds”.

“SEP3^Δtet-3FLAG (from UniProt O22456 1-251)” was tested, and the binding [6] was “binds”.

“SEP3^Δtet3M/AP1 (of the mixture SEP3^Δtet3M/AP1/AP3/PI) (from UniProt O22456 1-251; P35631 1-256) (complex)” was tested, and the binding [1] was “binds”.

For “SEP3^Δtet (At1g24260.3) (from UniProt O22456 1-251)”, the binding [3] was “binds” and the binding [7] was “binds”.

“SEP3^Δtet/AP1 (of the mixture SEP3^Δtet/AP1/AP3/PI) (from UniProt O22456 1-251; P35631 1-256) (complex)” was tested, and the binding [1] was “binds”.

For “SEP3^Δtet/AG heterodimer (from UniProt O22456 1-251; P17839 1-252) (complex)”, the binding [1] was “binds” and the binding [8] was “binds”.

For “SEP3^Δtet3M/AG heterodimer (from UniProt O22456 1-251; P17839 1-252) (complex)”, the binding [1] was “binds”.

For “SEP3^Δtet/AG^Δtet heterodimer (from UniProt O22456 1-251; P17839 1-252) (complex)”, the binding [1] was “no binding”.

For “SEP3 (At1g24260.2) (from UniProt O22456 1-251)”, the binding [3] was “binds” and the binding [9] was “binds”.
